Consider one sequence from patent publication US20100261245.

The exact form of at least one protein or probe is not confirmed. Negatives hold for the conditions tested.

The data set relates to VEGF. The data set can be described thus: SPR. To be noted: described as DNA, printed with m after each base; no binding affinity, BIAcore 2000, aptamer 30-500 nM; purified recombinant protein; single-stranded DNA; variant of anti-VEGF 2'-OMe-RNA aptamer.

For “ATGCAGTTTGAGAAGTCGCGCAT [anti-VEGF DNA aptamer (same sequence)]”, the binding result is listed as “no binding”.
